Results are given in words; binding and its absence hold for the method and conditions named. Binding seen in cells or lysates may run through a third protein. Some binding calls cover weakened binding; strength is not graded here. Sequences can lack the tags named with a protein.
T1: FLAG-4E-TΔII (human) (UniProt Q9NRA8)
T1 sequence: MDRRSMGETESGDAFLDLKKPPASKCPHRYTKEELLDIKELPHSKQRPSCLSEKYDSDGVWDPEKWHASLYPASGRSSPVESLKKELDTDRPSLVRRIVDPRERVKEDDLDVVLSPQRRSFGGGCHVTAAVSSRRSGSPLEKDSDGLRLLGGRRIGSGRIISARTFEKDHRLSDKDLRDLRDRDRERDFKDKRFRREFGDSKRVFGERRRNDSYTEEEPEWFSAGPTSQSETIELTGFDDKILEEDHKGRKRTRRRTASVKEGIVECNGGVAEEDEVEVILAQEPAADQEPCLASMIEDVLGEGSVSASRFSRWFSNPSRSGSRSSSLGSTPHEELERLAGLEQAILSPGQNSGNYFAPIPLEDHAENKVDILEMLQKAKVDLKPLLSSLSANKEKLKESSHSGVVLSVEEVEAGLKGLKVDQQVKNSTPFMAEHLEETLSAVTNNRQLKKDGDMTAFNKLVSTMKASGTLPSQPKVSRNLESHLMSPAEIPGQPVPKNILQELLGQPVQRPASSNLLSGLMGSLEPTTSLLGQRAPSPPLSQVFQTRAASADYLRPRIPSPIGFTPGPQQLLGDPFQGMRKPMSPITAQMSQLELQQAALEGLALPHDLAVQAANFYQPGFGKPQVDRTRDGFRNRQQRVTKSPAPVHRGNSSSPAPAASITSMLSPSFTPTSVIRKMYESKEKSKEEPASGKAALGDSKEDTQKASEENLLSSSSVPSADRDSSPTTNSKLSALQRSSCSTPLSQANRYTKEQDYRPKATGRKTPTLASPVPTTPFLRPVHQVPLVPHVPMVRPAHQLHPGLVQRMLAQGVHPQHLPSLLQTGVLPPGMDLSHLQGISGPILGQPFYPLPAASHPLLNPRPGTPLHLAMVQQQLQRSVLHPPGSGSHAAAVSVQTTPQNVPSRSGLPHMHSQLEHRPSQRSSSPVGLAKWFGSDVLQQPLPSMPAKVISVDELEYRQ

Amino acid sequences for entries named in this document (tags omitted).
UniProt O60573: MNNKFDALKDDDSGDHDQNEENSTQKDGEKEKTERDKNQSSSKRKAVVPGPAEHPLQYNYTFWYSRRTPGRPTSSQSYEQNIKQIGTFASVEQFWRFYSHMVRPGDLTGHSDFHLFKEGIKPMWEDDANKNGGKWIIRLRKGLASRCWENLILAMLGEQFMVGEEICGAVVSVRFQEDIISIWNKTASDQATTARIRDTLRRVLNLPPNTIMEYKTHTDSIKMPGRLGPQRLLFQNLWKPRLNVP
UniProt Q8ND56: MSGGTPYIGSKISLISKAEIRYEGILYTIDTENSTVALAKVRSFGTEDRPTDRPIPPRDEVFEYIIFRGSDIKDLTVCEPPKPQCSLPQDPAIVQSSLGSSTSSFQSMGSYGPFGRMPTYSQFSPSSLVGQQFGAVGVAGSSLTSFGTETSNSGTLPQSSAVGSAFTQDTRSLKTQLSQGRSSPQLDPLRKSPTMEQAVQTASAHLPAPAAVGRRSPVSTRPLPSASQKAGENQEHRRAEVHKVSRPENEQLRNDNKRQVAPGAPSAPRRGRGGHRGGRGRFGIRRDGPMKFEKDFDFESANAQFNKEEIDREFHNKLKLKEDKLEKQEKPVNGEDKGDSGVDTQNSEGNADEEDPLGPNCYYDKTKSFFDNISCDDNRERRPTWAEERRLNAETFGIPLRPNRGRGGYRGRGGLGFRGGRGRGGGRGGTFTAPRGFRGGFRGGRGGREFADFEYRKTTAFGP
UniProt P06730: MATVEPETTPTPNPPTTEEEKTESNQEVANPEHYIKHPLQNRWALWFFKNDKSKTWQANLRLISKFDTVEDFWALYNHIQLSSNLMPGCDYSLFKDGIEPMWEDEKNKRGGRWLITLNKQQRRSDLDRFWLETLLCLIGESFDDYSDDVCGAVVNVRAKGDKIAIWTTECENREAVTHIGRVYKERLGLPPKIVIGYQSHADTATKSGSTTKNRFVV

T2: FLAG-4E-T1-193 (human) (UniProt Q9NRA8)
T2 sequence: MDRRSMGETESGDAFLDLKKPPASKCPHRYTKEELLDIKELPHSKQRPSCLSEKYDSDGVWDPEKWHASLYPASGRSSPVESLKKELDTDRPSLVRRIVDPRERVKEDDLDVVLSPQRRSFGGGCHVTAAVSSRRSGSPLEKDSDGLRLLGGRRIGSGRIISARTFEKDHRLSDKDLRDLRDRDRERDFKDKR

T3: FLAG-4E-T 441-985 (human) (UniProt Q9NRA8)
T3 sequence: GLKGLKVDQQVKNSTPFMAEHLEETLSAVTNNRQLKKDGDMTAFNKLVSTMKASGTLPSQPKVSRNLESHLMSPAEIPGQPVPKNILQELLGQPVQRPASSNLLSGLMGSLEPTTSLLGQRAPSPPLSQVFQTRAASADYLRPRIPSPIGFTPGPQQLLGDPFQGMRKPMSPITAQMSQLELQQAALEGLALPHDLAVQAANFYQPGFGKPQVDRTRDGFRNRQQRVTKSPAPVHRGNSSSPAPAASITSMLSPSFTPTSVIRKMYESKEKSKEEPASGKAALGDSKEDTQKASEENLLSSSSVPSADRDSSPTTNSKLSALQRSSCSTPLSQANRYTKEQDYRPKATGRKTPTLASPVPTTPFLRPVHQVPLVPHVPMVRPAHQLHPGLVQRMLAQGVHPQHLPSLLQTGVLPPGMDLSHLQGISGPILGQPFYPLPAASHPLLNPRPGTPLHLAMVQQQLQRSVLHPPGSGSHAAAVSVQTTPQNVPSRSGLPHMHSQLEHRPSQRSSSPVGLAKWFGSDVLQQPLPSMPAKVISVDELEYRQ

T4: FLAG-UNR (human) (UniProt O75534)
T4 sequence: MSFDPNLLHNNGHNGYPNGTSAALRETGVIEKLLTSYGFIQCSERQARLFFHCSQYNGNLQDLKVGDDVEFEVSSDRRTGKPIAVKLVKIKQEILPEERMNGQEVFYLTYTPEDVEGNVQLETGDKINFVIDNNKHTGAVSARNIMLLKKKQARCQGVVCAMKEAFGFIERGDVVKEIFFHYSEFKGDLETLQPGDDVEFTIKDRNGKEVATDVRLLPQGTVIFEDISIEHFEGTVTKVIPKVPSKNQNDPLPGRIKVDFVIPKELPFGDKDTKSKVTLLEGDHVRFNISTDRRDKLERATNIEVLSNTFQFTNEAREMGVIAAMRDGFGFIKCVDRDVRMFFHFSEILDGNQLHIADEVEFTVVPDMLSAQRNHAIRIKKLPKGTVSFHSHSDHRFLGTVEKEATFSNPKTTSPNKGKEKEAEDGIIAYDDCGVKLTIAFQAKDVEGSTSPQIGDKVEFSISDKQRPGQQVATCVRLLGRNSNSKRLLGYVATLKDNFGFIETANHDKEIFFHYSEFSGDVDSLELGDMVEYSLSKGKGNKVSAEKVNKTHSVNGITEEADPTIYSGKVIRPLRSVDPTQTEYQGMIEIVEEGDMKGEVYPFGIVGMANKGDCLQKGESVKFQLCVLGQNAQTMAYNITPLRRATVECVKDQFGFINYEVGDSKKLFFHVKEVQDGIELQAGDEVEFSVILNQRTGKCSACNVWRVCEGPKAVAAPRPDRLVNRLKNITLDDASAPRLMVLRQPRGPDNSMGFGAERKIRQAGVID

B1: PAT1B, endogenous (protein, UniProt Q86TB9 1-770)
chain: MFRYESLEDCPLDEDEDAFQGLGEEDEEIDQFNDDTFGSGAVDDDWQEAHERLAELEEKLPVAVNEQTGNGERDEMDLLGDHEENLAERLSKMVIENELEDPAIMRAVQTRPVLQPQPGSLNSSIWDGSEVLRRIRGPLLAQEMPTVSVLEYALPQRPPQGPEDDRDLSERALPRRSTSPIIGSPPVRAVPIGTPPKQMAVPSFTQQILCPKPVHVRPPMPPRYPAPYGERMSPNQLCSVPNSSLLGHPFPPSVPPVLSPLQRAQLLGGAQLQPGRMSPSQFARVPGFVGSPLAAMNPKLLQGRVGQMLPPAPGFRAFFSAPPSATPPPQQHPPGPGPHLQNLRSQAPMFRPDTTHLHPQHRRLLHQRQQQNRSQHRNLNGAGDRGSHRSSHQDHLRKDPYANLMLQREKDWVSKIQMMQLQSTDPYLDDFYYQNYFEKLEKLSAAEEIQGDGPKKERTKLITPQVAKLEHAYKPVQFEGSLGKLTVSSVNNPRKMIDAVVTSRSEDDETKEKQVRDKRRKTLVIIEKTYSLLLDVEDYERRYLLSLEEERPALMDDRKHKICSMYDNLRGKLPGQERPSDDHFVQIMCIRKGKRMVARILPFLSTEQAADILMTTARNLPFLIKKDAQDEVLPCLLSPFSLLLYHLPSVSITSLLRQLMNLPQSAATPALSNPHLTAVLQNKFGLSLLLILLSRGEDLQSSDPATESTQNNQWTEVMFMATRELLRIPQAALAKPISIPTNLVSLFSRYVDRQKLNLLETKLQLVQGIR
B2: CNOT4, endogenous (protein, UniProt O95628 1-575)
chain: MSRSPDAKEDPVECPLCMEPLEIDDINFFPCTCGYQICRFCWHRIRTDENGLCPACRKPYPEDPAVYKPLSQEELQRIKNEKKQKQNERKQKISENRKHLASVRVVQKNLVFVVGLSQRLADPEVLKRPEYFGKFGKIHKVVINNSTSYAGSQGPSASAYVTYIRSEDALRAIQCVNNVVVDGRTLKASLGTTKYCSYFLKNMQCPKPDCMYLHELGDEAASFTKEEMQAGKHQEYEQKLLQELYKLNPNFLQLSTGSVDKNKNKVTPLQRYDTPIDKPSDSLSIGNGDNSQQISNSDTPSPPPGLSKSNPVIPISSSNHSARSPFEGAVTESQSLFSDNFRHPNPIPSGLPPFPSSPQTSSDWPTAPEPQSLFTSETIPVSSSTDWQAAFGFGSSKQPEDDLGFDPFDVTRKALADLIEKELSVQDQPSLSPTSLQNSSSHTTTAKGPGSGFLHPAAATNANSLNSTFSVLPQRFPQFQQHRAVYNSFSFPGQAARYPWMAFPRNSIMHLNHTANPTSNSNFLDLNLPPQHNTGLGGIPVAGEEEVKVSTMPLSTSSHSLQQGQQPTSLHTTVA

How the values were obtained:
Experiment in all cases: co-IP; anti-FLAG M2 beads on lysates of transfected HEK293T cells, eluted with SDS loading buffer, western blot; lysates with or without RNase A (40 μg/ml); in some panels cells also given siRNA against β-globin, DDX6, UNR or unrip, or co-transfected with HA-DDX6
FLAG-4E-TΔII (human) = biological target: T1, FLAG-4E-TΔII (human)
FLAG-4E-T1-193 (human) = biological target: T2, FLAG-4E-T1-193 (human)
[1] = biological target: T3, FLAG-4E-T 441-985 (human)
FLAG-UNR (human) = biological target: T4, FLAG-UNR (human)

| Molecule | binding (FLAG-4E-TΔII (human)) | binding (FLAG-4E-T1-193 (human)) | binding [1] | binding (FLAG-UNR (human)) |
| --- | --- | --- | --- | --- |
| eIF4E2, endogenous (from UniProt O60573 1-245) | binds |  |  |  |
| LSM14A, endogenous (from UniProt Q8ND56 1-463) | binds | no binding | binds | no binding |
| eIF4E1, endogenous (from UniProt P06730 1-217) | binds |  |  |  |
| B1 | binds | no binding | binds |  |
| B2 | binds |  |  | binds |

Reference: article PMC5291280
